Data: paper PMC4991450, “Protein arginine methyltransferase 1 may be involved in pregnane x receptor-activated overexpression of multidrug resistance 1 gene during acquired multidrug resistant” (Oncotarget, 2016)
These are yes or no findings as the source states them, for the method shown. In cells and extracts the contact can be indirect. Some results given as binding are weak or reduced against the parent protein; the word gives no strength.

Chains of the proteins cited; added tags and fusions are not shown.
UniProt Q99873: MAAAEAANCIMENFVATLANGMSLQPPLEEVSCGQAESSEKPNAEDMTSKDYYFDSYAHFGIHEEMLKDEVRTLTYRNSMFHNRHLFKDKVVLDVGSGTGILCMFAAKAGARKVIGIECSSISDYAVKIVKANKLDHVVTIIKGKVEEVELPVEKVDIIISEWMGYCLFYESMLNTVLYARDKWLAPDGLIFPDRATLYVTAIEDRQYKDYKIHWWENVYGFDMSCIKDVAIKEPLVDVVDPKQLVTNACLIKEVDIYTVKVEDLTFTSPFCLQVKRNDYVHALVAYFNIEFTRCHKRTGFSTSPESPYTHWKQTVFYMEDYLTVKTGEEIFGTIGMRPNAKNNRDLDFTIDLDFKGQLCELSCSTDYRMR

Assays:
[1] = target: Protein arginine methyltransferase 1 (human (endogenous in MCF7/adr)) (UniProt Q99873); assay: condition: only cells treated with 4.5 μg/mL of AMI-1 for 24 h; co-IP; as a1, but MCF7/adr cells treated with 4.5 μg/mL of AMI-1 for 24 h before lysis
[2] = target: Protein arginine methyltransferase 1 (human (endogenous in MCF7/adr)) (UniProt Q99873); assay: co-IP; MCF7/adr cell lysate; anti-PRMT1 antibody overnight at 4°C, Protein A + G agarose 2 h at 4°C; blot with anti-PRMT1 and anti-PXR; isotype IgG as negative control; cells in drug-free medium for 2 weeks before the assay, also on the 14th day of the adriamycin removal experiment

binding [1]: no binding | binding [2]: binds
B1: Pregnane x receptor (protein, UniProt O75469 1-434)
chain: MEVRPKESWNHADFVHCEDTESVPGKPSVNADEEVGGPQICRVCGDKATGYHFNVMTCEGCKGFFRRAMKRNARLRCPFRKGACEITRKTRRQCQACRLRKCLESGMKKEMIMSDEAVEERRALIKRKKSERTGTQPLGVQGLTEEQRMMIRELMDAQMKTFDTTFSHFKNFRLPGVLSSGCELPESLQAPSREEAAKWSQVRKDLCSLKVSLQLRGEDGSVWNYKPPADSGGKEIFSLLPHMADMSTYMFKGIISFAKVISYFRDLPIEDQISLLKGAAFELCQLRFNTVFNAETGTWECGRLSYCLEDTAGGFQQLLLEPMLKFHYMLKKLQLHEEEYVLMQAISLFSPDRPGVLQHRVVDQLQEQFAITLKSYIECNRPQPAHRFLFLKIMAMLTELRSINAQHTQRLLRIQDIHPFATPLMQELFGITGS
